The values that follow come from patent publication US20050069951A1.

Results are given in words; binding and its absence hold for the method and conditions named. For some of these results: Binding can be weak; no strength is given.

The target in experiment [1] is H. influenzae tyrosine tRNA synthetase (H. influenzae). Briefly: ELSA: biotinylated peptide, immobilized target.
Experiment [2] has the same target. Briefly: ELSA on immobilized TyrRS with a tyrosyladenylate inhibitor.
For experiment [3] the target is unchanged. The experiment can be described thus: ELSA, immobilized TyrRS.
Experiment [4] shares this target. Briefly: ELSA, immobilized targets (FIG. 13a).

As for LYSWPDEQYERP (biotinylated, position not stated) [biotinylated peptide TyrRS1], the binding entry in experiment [1] and in experiment [2] was “binds” throughout.
VCAIWPDLDGC (biotinylated, position not stated) [biotinylated ProRS surrogate ligand peptide]: the binding entry in experiment [3] and in experiment [4] was “no binding” each time.
